Assay results taken from PubChem BioAssay AID1487 (National Center for Advancing Translational Sciences (NCATS), 2009).
The list shows a part of the results. These are further read-outs of the screen, such as a control signal, another cell line or another target. No call is given for them. Compounds called inactive in the main read-out are mostly missing here. Words in brackets tell the shape of the fitted curve; partial curves, single points and poor fits give uncertain potencies.

Experiment: qHTS Assay for Modulators of Lamin A Splicing
Conditions: HeLa LMNA splicing GFP/RFP minigene ratio, 48 h
Outline: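 Read-out is the ratio of GFP to DsRed2 object intensity, acquired by 488 nm laser-scanning cytometry on HeLa lamin A-EGFP minigene reporter cells. Compound incubation 48 hrs at 37 °C in Opti-MEM with 2% FBS; DMSO 0.5% final.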

[1] = measured here: GFP splicing reporter channel
[2] = measured here: RFP viability control channel

SMILES | AC50 [1] | AC50 [2]
O=C1Nc2ccc(Br)cc2C12NNc1ccccc1O2 (configuration not stated) | 35.5 µM [rising, single point] | 25.1 µM [rising, single point]
CCC(CC)c1nnc(NC(=O)c2cc(-c3ccccc3)nc3ccccc23)s1 |  | 35.5 µM [rising, single point]
Cc1noc(C)c1-c1nccc(NCc2cccs2)n1 | 6.31 µM [falling, partial curve] | 3.98 µM [falling, partial curve]
CNC(=O)[C@@H]1C[C@H]1[C@@H](NC(=O)OCc1ccccc1)c1ccccc1 |  | 35.5 µM [rising, single point]
COc1cc(C(=O)NCc2nc3cccnc3n2Cc2ccc(C)cc2)cc(OC)c1OC |  | 0.0316 µM [falling, full curve, poor fit]
Oc1ccc(-c2nc3ccc4ccccc4c3c3c2CCC3)cc1O | 11.2 µM [falling, partial curve, poor fit] | 
Cc1ccc(-n2nc(C)c(/C=N/NC(=O)c3cccnc3)c2Cl)cc1 | 0.0251 µM [rising, full curve, poor fit] | 
CCOC(=O)C1=C(c2ccccc2)NC(=O)NC1c1ccc(N(C)C)cc1 (configuration not stated) | 14.1 µM [rising, single point] | 
N#Cc1c2c(c(-c3ccccc3Cl)[nH]c1=S)CCCC2 | 1.78 µM [falling, full curve, poor fit] | 
Cc1ccc(Nc2nc(N)nc(CSc3nc4ccccc4s3)n2)cc1 | 20 µM [falling, single point] | 25.1 µM [falling, single point]
Cc1ccc2sc(N(CCCN(C)C)C(=O)c3ccc(Br)s3)nc2c1C |  | 28.2 µM [falling, single point]
Cc1nc(CNS(=O)(=O)c2ccc(Oc3ccccc3)cc2)cs1 | 3.16 µM [rising, single point] | 2.82 µM [rising, full curve]
Cc1ccc(S(=O)(=O)N2CCC(=O)N(C(COC(=O)Nc3ccccc3)Cc3ccccc3)CC2)cc1 (configuration not stated) |  | 6.31 µM [rising, full curve, poor fit]
O=C(NCc1ccco1)c1csc2c1CCCC2 | 1.41 µM [rising, partial curve] | 0.398 µM [rising, full curve, poor fit]
O=C(NCCN1CCN(C(=O)c2cccs2)CC1)C(=O)Nc1ccc(Br)cc1 | 31.6 µM [rising, single point] | 28.2 µM [rising, single point]
Cc1ccc(CNC(=O)CO/N=C/c2ccc(C(C)(C)C)cc2)cc1 |  | 28.2 µM [rising, single point]
COC(=O)c1ccc(OC)c(CSc2nnc(COc3ccccc3)o2)c1 |  | 11.2 µM [rising, single point]
COC1=C(Nc2ccccc2)C(=O)c2ccccc2C1=O | 22.4 µM [rising, single point] | 20 µM [rising, single point]
Cc1ccccc1Nc1nn2c(=O)c3ccc(C(=O)NCc4cccs4)cc3nc2s1 | 0.2 µM [rising, full curve] | 0.251 µM [rising, partial curve]
Cc1ccc(S(=O)(=O)N2CCCC(C(=O)NCCc3ccc4c(c3)OCO4)C2)cc1 (configuration not stated) | 7.94 µM [rising, partial curve] | 12.6 µM [rising, partial curve]
CS(=O)(=O)N(CCc1ccccc1)CC(=O)N1CCN(c2ccc(F)cc2)CC1 | 17.8 µM [rising, single point] | 25.1 µM [rising, single point]
Cc1cc(C)cc(NC(=O)CSc2ccc(-c3cccs3)nn2)c1 |  | 15.8 µM [rising, single point]
CCOC(=O)c1ccc2ncc(C(=O)OCC)c(Nc3ccc(N4CCOCC4)cc3)c2c1 | 7.94 µM [falling, partial curve, poor fit] | 
O=[N+]([O-])c1ccccc1NCCNS(=O)(=O)c1ccc(Cl)cc1 |  | 14.1 µM [rising, single point]
Cc1ccc(-c2cc(-c3ccccc3)c(C#N)c(N)n2)o1 |  | 0.708 µM [rising, full curve, poor fit]
COc1ccc(OCC(O)Cn2c(=N)n(CCN3CCCCC3)c3ccccc32)cc1 (configuration not stated) |  | 35.5 µM [rising, single point]
COc1ccc(CCNc2ncnc3c2cnn3-c2ccc(C)c(Cl)c2)cc1 |  | 8.91 µM [rising, partial curve]

SMILES | AC50 [1] | AC50 [2]
CCc1cc(C(=O)COc2ccccc2F)c(O)cc1O | 28.2 µM [rising, single point] | 35.5 µM [rising, single point]
Cc1ccc(N(CCC#N)C(=O)CCl)cc1C | 35.5 µM [falling, single point] | 1.26 µM [falling, partial curve]
Cn1c(SCC(=O)Nc2nc(C(C)(C)C)cs2)nnc1C1CC1 |  | 11.2 µM [falling, partial curve, poor fit]
O=c1cc(N2CCC3(CC2)OCCO3)[nH]c(=O)n1C1CCCCC1 | 1.12 µM [rising, full curve, poor fit] | 1.41 µM [rising, full curve, poor fit]
COc1ccc(-c2nn(-c3ccccc3F)cc2CNCCn2nc(C)cc2C)cc1 | 0.01 µM [falling, full curve, poor fit] | 0.01 µM [falling, full curve, poor fit]
Cc1ccc(N2CCN(C(=O)c3cccn4c(=O)c5ccc(Cl)cc5nc34)CC2C)cc1 (configuration not stated) | 0.316 µM [falling, full curve, poor fit] | 0.891 µM [falling, full curve, poor fit]
CCOc1cc2nc3c4ccccc4n(C)c3nc2cc1OCC | 0.891 µM [falling, full curve, poor fit] | 0.891 µM [falling, full curve, poor fit]
Cc1cc(C)c(C)c(S(=O)(=O)NCC(=O)NCc2ccco2)c1C | 35.5 µM [rising, single point] | 
CCCn1c(=O)c(C(=O)NCc2ccco2)c(O)c2ccccc21 | 5.62 µM [falling, single point] | 
COc1ccc(CNc2ccc(C)c(C)c2)cc1 | 7.08 µM [rising, partial curve, poor fit] | 12.6 µM [rising, partial curve, poor fit]
FC(F)(F)c1cnc(N2CCCN(C(=S)Nc3ccccc3)CC2)c(Cl)c1 | 2 µM [falling, partial curve, poor fit] | 2.24 µM [falling, partial curve, poor fit]
Cc1cc(Cl)ccc1C(=O)C1CCCN(C(=O)c2ccc3ncccc3c2)C1 (configuration not stated) | 7.94 µM [falling, partial curve, poor fit] | 4.47 µM [falling, full curve]
CCCCc1ccc(NS(=O)(=O)c2cc3c4c(c2)CC(=O)N4CCC3)cc1 | 17.8 µM [rising, partial curve] | 28.2 µM [rising, single point]
Cc1ccc(S(=O)(=O)N(C)c2ccc(C(=O)Nc3c(C)n(C)n(-c4ccccc4)c3=O)cc2)cc1 | 0.141 µM [falling, full curve, poor fit] | 0.0891 µM [falling, full curve]
C/C(=N\NC(=O)c1cc(-c2cccs2)nc2ccccc12)c1ccccn1 | 0.891 µM [falling, partial curve, poor fit] | 
COc1ccc(NC(=O)c2c(F)cccc2F)cc1S(=O)(=O)Nc1ccc(Br)cc1 |  | 28.2 µM [rising, single point]
CCOc1cc(/C=C/c2ccc3cccc([N+](=O)[O-])c3n2)ccc1OCC(=O)N(C)C |  | 10 µM [rising, partial curve]
CS(=O)(=O)c1ncc(Cl)c(C(=O)Nc2ccc3ccccc3c2)n1 | 10 µM [falling, partial curve, poor fit] | 5.62 µM [falling, full curve, poor fit]
CC(C)C(c1nnnn1C1CCCC1)N1c2ccccc2CC1C (configuration not stated) |  | 35.5 µM [rising, single point]
CCOc1ccc(NC(=O)c2cc3c(C)nc4ccccc4c3o2)cc1 |  | 10 µM [rising, partial curve, poor fit]
COc1ccc(Cl)cc1NC(=O)COC(=O)c1cc(NS(=O)(=O)c2cccs2)ccc1O | 11.2 µM [rising, single point] | 7.94 µM [rising, partial curve]
COc1ccc(Cc2nnc(SCc3ccc([N+](=O)[O-])cc3)o2)cc1 |  | 15.8 µM [rising, partial curve, poor fit]
O=S(=O)(c1ccccc1)N1c2cc(Cl)ccc2Oc2nc3ccccc3nc21 | 6.31 µM [rising, partial curve] | 11.2 µM [rising, partial curve]
COc1cc(/C=C/C(=O)C2C(=O)C=C(C)OC2=O)cc(OC)c1O (configuration not stated) |  | 35.5 µM [rising, single point]
Cn1c(=O)c2c(n3cnnc13)-c1ccccc1CC21CCCC1 |  | 1.41 µM [rising, full curve]
Cc1c(C(=O)NCc2ccc3c(c2)OCO3)oc2ccc(S(=O)(=O)N3CCC(C)CC3)cc12 |  | 14.1 µM [rising, single point]

Full records, quoted from the list.
Cn1c(SCC(=O)Nc2nc(C(C)(C)C)cs2)nnc1C1CC1 reads AC50 [2]: 11.2 µM [falling, partial curve, poor fit]
COc1cc(/C=C/C(=O)C2C(=O)C=C(C)OC2=O)cc(OC)c1O (configuration not stated) reads AC50 [2]: 35.5 µM [rising, single point]
CS(=O)(=O)c1ncc(Cl)c(C(=O)Nc2ccc3ccccc3c2)n1 reads AC50 [1]: 10 µM [falling, partial curve, poor fit]; AC50 [2]: 5.62 µM [falling, full curve, poor fit]
C/C(=N\NC(=O)c1cc(-c2cccs2)nc2ccccc12)c1ccccn1 reads AC50 [1]: 0.891 µM [falling, partial curve, poor fit]
